Some of the results follow.

Sequences of proteins named here, by UniProt entry; tags and fusion partners are left off. A change or cut given only in a name is not applied to a line headed by its entry.
UniProt Q99541: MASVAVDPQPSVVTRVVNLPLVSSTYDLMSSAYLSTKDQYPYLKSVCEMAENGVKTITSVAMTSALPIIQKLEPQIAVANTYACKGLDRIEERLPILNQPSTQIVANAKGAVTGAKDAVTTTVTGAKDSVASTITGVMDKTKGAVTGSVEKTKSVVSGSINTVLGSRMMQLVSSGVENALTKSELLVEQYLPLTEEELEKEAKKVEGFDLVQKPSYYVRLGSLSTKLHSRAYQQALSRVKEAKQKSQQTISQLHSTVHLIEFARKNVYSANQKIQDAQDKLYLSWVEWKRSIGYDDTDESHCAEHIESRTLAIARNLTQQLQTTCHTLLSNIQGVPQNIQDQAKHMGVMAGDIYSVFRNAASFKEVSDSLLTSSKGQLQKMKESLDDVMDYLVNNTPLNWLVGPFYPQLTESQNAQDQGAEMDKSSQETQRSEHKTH
UniProt Q96HA1, whole entry, looked up: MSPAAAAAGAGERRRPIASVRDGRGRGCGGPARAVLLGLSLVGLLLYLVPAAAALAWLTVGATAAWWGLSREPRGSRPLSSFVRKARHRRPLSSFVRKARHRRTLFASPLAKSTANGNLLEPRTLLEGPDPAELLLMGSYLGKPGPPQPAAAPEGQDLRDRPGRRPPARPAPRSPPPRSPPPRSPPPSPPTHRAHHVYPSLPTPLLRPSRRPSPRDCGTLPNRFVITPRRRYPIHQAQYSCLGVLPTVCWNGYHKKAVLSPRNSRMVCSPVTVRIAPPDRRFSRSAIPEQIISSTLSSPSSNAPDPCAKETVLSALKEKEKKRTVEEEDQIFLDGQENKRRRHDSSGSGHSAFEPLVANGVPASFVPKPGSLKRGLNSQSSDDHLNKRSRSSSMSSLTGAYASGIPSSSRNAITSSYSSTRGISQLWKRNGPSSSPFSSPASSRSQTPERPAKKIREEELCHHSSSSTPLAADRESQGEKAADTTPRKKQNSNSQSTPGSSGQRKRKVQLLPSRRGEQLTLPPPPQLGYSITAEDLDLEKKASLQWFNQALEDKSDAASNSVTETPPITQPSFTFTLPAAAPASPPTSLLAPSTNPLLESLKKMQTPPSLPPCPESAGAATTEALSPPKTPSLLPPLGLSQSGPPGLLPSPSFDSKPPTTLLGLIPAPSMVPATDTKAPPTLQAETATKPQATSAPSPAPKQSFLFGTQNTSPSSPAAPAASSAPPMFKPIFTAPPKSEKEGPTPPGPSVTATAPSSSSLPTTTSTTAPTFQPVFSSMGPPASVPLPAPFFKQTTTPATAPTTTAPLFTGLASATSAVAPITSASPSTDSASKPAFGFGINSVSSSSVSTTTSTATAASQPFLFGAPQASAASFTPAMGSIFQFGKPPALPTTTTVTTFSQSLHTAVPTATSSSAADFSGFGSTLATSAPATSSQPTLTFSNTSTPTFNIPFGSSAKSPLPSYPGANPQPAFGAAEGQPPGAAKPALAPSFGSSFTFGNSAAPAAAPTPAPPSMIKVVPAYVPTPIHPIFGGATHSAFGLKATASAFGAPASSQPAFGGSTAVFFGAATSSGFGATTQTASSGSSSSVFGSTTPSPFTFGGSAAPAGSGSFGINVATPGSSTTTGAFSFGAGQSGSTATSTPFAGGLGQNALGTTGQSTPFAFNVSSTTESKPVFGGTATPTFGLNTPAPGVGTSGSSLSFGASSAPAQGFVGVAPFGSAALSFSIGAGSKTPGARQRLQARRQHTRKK
UniProt P62937, whole entry, looked up: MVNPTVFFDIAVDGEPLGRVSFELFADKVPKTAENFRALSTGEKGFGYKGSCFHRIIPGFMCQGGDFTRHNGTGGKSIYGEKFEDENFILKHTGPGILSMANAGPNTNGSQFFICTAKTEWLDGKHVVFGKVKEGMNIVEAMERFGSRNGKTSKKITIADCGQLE
UniProt O15162: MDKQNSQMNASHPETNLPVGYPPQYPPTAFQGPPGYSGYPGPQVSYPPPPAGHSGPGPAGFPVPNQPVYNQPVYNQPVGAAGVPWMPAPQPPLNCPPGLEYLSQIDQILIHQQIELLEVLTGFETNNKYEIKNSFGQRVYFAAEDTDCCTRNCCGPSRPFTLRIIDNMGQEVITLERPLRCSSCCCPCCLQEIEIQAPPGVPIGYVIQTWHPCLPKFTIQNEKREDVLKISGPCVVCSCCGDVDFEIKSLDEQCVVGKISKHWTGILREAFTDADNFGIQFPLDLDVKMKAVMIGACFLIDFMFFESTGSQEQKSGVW
UniProt Q13356: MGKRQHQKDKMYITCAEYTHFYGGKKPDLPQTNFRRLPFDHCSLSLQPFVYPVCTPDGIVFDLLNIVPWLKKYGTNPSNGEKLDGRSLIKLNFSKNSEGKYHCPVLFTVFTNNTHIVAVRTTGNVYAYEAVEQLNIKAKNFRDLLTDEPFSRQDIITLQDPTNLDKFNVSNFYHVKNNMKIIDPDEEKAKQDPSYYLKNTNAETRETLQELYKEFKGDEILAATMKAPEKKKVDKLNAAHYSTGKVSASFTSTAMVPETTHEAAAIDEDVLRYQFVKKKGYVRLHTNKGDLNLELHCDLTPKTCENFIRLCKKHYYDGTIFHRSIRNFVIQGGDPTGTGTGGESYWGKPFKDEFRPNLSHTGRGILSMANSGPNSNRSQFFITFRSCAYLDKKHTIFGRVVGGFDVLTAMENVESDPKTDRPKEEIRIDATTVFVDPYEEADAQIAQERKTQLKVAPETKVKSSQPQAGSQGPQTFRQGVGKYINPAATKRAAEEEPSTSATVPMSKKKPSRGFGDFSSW
UniProt Q9NW08: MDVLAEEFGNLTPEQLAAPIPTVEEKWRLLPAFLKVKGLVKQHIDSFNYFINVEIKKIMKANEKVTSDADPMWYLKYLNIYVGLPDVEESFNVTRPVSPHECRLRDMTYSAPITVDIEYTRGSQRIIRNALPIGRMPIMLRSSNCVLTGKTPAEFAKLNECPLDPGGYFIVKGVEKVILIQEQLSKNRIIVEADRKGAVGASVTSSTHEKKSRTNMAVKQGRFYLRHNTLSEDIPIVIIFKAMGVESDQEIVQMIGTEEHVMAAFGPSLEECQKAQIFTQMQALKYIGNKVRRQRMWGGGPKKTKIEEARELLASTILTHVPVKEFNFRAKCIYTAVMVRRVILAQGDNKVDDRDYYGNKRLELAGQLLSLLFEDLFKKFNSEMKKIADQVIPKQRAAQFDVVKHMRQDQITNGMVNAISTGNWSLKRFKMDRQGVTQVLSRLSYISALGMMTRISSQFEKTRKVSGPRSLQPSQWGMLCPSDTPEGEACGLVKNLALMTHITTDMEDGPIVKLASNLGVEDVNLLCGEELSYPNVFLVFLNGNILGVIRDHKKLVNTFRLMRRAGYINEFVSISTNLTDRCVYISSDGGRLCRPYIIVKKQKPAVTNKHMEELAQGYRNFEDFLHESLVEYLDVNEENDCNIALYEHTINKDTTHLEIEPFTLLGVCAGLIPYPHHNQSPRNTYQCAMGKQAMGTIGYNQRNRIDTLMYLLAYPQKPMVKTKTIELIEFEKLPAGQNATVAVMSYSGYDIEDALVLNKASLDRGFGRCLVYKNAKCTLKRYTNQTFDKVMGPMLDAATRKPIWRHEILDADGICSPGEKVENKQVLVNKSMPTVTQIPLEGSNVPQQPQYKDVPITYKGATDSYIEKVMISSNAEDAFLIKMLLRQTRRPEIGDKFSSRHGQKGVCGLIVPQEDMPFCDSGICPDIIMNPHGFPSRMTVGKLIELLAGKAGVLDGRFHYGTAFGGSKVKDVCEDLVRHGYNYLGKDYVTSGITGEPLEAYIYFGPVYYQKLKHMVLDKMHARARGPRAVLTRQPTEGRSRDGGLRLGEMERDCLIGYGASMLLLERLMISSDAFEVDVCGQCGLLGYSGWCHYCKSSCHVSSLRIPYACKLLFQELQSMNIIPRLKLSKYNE
UniProt P0DPB6, whole entry, looked up: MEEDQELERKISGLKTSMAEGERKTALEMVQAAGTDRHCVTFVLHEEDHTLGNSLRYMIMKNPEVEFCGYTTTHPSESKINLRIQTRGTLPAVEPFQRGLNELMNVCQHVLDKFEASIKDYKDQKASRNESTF
UniProt O75439: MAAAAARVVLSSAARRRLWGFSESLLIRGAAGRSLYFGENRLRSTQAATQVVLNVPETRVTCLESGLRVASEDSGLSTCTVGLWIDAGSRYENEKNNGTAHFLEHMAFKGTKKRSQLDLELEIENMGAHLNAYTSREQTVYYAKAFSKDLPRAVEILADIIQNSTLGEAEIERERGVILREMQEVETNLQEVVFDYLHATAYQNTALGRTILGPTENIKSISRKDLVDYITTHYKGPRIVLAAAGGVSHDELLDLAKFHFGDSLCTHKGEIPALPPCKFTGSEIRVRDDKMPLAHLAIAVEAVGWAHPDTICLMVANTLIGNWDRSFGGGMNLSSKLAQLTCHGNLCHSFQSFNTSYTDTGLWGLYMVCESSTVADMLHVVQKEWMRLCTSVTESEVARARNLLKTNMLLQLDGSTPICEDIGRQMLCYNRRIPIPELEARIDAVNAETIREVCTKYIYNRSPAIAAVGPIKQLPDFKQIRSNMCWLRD
UniProt Q9H5K3: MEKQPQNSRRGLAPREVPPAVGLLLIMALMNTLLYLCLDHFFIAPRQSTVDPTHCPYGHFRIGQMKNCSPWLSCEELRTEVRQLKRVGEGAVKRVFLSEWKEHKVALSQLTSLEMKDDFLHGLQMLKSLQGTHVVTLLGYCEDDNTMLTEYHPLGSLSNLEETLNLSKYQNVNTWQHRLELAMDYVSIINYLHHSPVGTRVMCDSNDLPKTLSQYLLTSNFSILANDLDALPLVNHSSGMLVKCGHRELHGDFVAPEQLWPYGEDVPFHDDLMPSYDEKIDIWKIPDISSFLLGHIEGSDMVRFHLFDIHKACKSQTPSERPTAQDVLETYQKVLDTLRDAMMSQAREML
UniProt O60664: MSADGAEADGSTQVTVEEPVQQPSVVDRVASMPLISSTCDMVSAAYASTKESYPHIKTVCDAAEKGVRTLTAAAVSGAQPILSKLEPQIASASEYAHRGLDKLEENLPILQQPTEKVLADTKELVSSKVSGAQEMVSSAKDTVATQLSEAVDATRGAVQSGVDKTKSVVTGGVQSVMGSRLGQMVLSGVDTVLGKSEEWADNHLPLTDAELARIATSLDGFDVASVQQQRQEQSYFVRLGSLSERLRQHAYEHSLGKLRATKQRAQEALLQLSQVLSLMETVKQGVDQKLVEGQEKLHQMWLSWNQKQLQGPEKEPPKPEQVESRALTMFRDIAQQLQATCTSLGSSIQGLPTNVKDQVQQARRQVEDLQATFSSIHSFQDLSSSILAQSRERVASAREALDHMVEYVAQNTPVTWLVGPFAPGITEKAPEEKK

Experiment in all cases: log2 fold change, soluble protein after heating vs DMSO (PISA); higher = thermal stabilisation; K562 cells, 10 uM, 30 min; active = over 0.2 and 3.5 SD of the protein, either way, in both replicates (recomputed)
Compound in assay [1]: CC[C@@H]1C(=O)N(C)c2cnc(Nc3ccc(C(=O)NC4CCN(C)CC4)cc3OC)nc2N1C1CCCC1
The method in brief: (§1)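 Soluble protein was defined as the supernatant after 21,000xg for 90 min. It came from K562 cells at 2×10^6 cells/mL given 10 μM compound for 30 min, heated in aliquots for 3 min across 48°C-58°C, pooled, and extracted in PBS with 0.5% NP-40 at 4°C, and was quantified by TMTpro 16plex LC-MS/MS with equalised channel sums. Thermal stability against control samples, from duplicates, is reported as log2 fold change.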

Compound in the next assay: CC[C@@H]1C(=O)N(C)c2cnc(Nc3ccc(C(=O)N[C@H]4CC[C@H](N5CCN(CC6CC6)CC5)CC4)cc3OC)nc2N1C(C)C [volasertib]
A digest of the protocol:
as §1

Compound in assay [2]: CC[C@H](C)N1C=C(C2=C(C=C(C=C21)C3=CN=C(C=C3)N4CCNCC4)C(=O)NCC5=C(C=C(NC5=O)C)C)C
The method in brief: as §1

Compound in the next assay: CC[C@H](C)[C@@H](C(=O)N[C@@H]([C@@H](C)O)C(=O)N[C@@H](CC(C)C)C(=O)[C@]1(CO1)C)NC(=O)[C@H]([C@@H](C)CC)N(C)C(=O)C [epoxomicin]
A digest of the protocol: as §1

Compound in assay [3]: CCn1cc(-c2ccnc3[nH]c(-c4cccc(CN(C)C)c4)cc23)c(-c2ccc(NC(=O)N(C)C)cc2)n1
The method in brief:
as §1

Compound in assay [4]: CN(C)CC(=O)Nc1ccc2[nH]c(=O)c3ccccc3c2c1
A digest of the protocol: as §1

Compound in assay [5]: CN1C2=C(C3=C1C(=O)N(N=C3)CC4=CC(=CC=C4)N)SC(=C2)S(=O)C
The method in brief: as §1

Compound in assay [6]: CN1CCC(CNc2ccc3ncc(-c4cccc(OC(F)(F)F)c4)n3n2)CC1
A digest of the protocol: as §1

Compound in another assay: CN(CCOC1=CC=C(C=C1)C[C@H]2C(=O)NC(=O)S2)C3=CC=CC=N3 (racemic) [rosiglitazone]
A digest of the protocol: as §1

Compound in assay [7]: CCn1c(C(=O)N(C2CC2)C2CC2)cc2c3c(ncn3C)c(Nc3cc(C)n(C)n3)nc21
A digest of the protocol:
as §1

With PLIN2 (UniProt Q99541), the log2 fold change in assay [1] is inactive: -0.173; with volasertib, inactive: -0.259; in assay [2], inactive: -0.102; in the assay with epoxomicin, inactive: 0.153; in assay [3] it was inactive: -0.01; in assay [4], inactive: 0.013. Moreover, the log2 fold change in assay [5] was inactive: 0; in assay [6], active: -0.699.

Regarding POM121 (UniProt Q96HA1), the log2 fold change in assay [1] was inactive: -0.017; with volasertib it was inactive: -0.027; in assay [2], inactive: 0.056; with epoxomicin, inactive: -0.062; in assay [3] it was inactive: 0.03; in assay [4], inactive: -0.071. Besides, the figures for the log2 fold change in assay [5] and in [6] were inactive: 0.137 and inactive: -0.149, respectively.

Regarding POLR2K (UniProt P53803), the log2 fold change in assay [1] was inactive: -0.259; in the assay with volasertib, inactive: -0.002; in assay [2], inactive: -0.05; in the assay with epoxomicin it was inactive: -0.032; in assay [3], inactive: -0.049; in [4], inactive: 0.05. For the same target, the log2 fold change in assay [5] is inactive: -0.02; in [6], inactive: 0.05.

For PPIA isoform 2 (UniProt P62937), the log2 fold change in [1] was inactive: 0.082; with volasertib, inactive: -0.02; in assay [2] it was inactive: -0.119; in the assay with epoxomicin, inactive: -0.069; in [3], inactive: 0.123; in [4] it was inactive: -0.029. The log2 fold change with rosiglitazone was inactive: 0.152; in assay [5], inactive: -0.128; in assay [6] it was inactive: 0.094.

In the case of PLSCR1 (UniProt O15162), the log2 fold change was inactive: 0.025 in assay [1]; inactive: -0.1 with volasertib; inactive: -0.069 in [2]; inactive: -0.022 in the assay with epoxomicin; inactive: 0.053 in [3]; inactive: 0.037 in assay [4]. Also, the log2 fold change in [5] is inactive: -0.02; in [6], inactive: 0.044.

Regarding POLR2L (UniProt P62875), the log2 fold change in assay [1] is inactive: 0.088; with volasertib it was inactive: -0.134; in assay [2], inactive: 0.036; with epoxomicin, inactive: 0.247; in [7], inactive: 0.05; in assay [3] it was inactive: -0.054. Besides, the results for the log2 fold change in assay [4], in assay [5] and in [6] were inactive: 0.195, inactive: 0.052 and inactive: 0.16, respectively.

In the case of PPIL2 (UniProt Q13356), the log2 fold change in assay [1] was inactive: -0.196; in the assay with volasertib, active: -0.599; in assay [2] it was inactive: 0.159; with epoxomicin it was inactive: 0.142; in [3], inactive: -0.031; in assay [4], inactive: 0.08. The log2 fold change is inactive: -0.019 in assay [5] and inactive: -0.022 in [6].

Take POLR3B (UniProt Q9NW08): the log2 fold change in assay [1] is inactive: 0.029; with volasertib, inactive: -0.44; in assay [2], inactive: 0.134; in the assay with epoxomicin, inactive: 0.07; in [3], inactive: -0.028; in assay [4], inactive: 0.075. Also, the log2 fold change in assay [5] is inactive: 0.105; in assay [6], inactive: -0.058.

Consider POLR2B (UniProt P30876), for which the log2 fold change was inactive: 0.064 in [1]; inactive: -0.128 in the assay with volasertib; inactive: -0.018 in assay [2]; inactive: -0.008 in the assay with epoxomicin; inactive: 0.023 in [3]; inactive: -0.015 in [4]. For the same target, the log2 fold change in [5] is inactive: 0.03; in assay [6] it was inactive: 0.031.

As to POLR1D (UniProt P0DPB6), the log2 fold change in [1] is inactive: -0.047; with volasertib, inactive: -0.215; in assay [2], inactive: 0.013; with epoxomicin, inactive: 0.286; in [7], inactive: -0.043; in assay [4] it was inactive: 0.052. The results for the log2 fold change (in the assay with rosiglitazone; in assay [5]) were inactive: 0.12 and inactive: 0.098, respectively.

Take PMPCB (UniProt O75439): the log2 fold change was inactive: 0.008 in [1]; inactive: 0.138 in the assay with volasertib; inactive: 0.038 in assay [2]; inactive: 0.022 with epoxomicin; inactive: -0.125 in [3]; inactive: 0.032 in assay [4]. Moreover, the figures for the log2 fold change in assay [5] and in [6] were inactive: -0.084 and inactive: 0.098, respectively.

In the case of POLR2D (UniProt O15514), the log2 fold change in [1] was inactive: 0.206; in the assay with volasertib, inactive: 0.135; in [2], inactive: -0.017; with epoxomicin it was inactive: 0.17; in [3], inactive: 0.043; in [4], inactive: -0.02. The log2 fold change was inactive: -0.101 in assay [5] and inactive: 0.056 in [6].

Take POMK (UniProt Q9H5K3): the log2 fold change in assay [1] was inactive: -0.079; in the assay with volasertib it was inactive: -0.093; in assay [2], inactive: 0.014; with epoxomicin, inactive: -0.05; in [3], inactive: 0.054; in [4] it was inactive: -0.007. The results for the log2 fold change in assay [5] and in assay [6] were inactive: 0.023 and inactive: -0.082, respectively.

PPIP5K2 (UniProt H0Y9S9): the log2 fold change in [1] is inactive: -0.051; in the assay with volasertib it was inactive: -0.266; in assay [2], inactive: -0.02; in the assay with epoxomicin it was inactive: 0.086; with rosiglitazone, inactive: -0.077; in assay [5], inactive: -0.168.

With PLIN3 isoform 2 (UniProt O60664), the log2 fold change in assay [1] is inactive: -0.044; with volasertib, inactive: -0.073; with epoxomicin, inactive: -0.218; in the assay with rosiglitazone, inactive: -0.079.
